The list is a part of this screen's results and no random one: it is rich in T/C values a quarter to a half above the control, in often repeated tests (any T/C) and in doses without a T/C. Further doses and runs are listed elsewhere. T/C is the treated group as % of the vehicle group. Some doses have a count of surviving animals in place of a T/C: the source holds a T/C of zero for them, seemingly a mark for toxic or unscored doses. Some doses without a T/C left all or most animals alive at the check, yet need not have been tolerated: survival well below the control is almost never listed, so the zero probably covers shortened survival too. Survivors were counted at the toxicity check, usually on the fifth day, unless a day is given; later deaths do not show. Schedules are NCI's codes, taken here to give the interval after Q, in days (D) or hours (H), and the number of doses after X. Some schedules carry Z or #; the key to these is not given. For survival time, the PubChem record calls one and a half times the control and up active, and a quarter to a half above the control has no call in these data; cut-offs in other NCI protocols can differ.
System: BDF1 mice, P388 leukemia ip, median survival T/C
Experiment: NCI In Vivo Anticancer Drug Screen. Data for tumor model P388 Leukemia (intraperitoneal) in B6D2F1 (BDF1) mice
Details: T/C endpoint: median survival time, higher T/C = longer survival
Experimental: The antitumor activity of compounds was measured in mice bearing transplantable tumors. Survival or tumor size were measured and the results are expressed as the measurement made in the treated group (T) divided by the measurement made in the vehicle treated control group (C). The tumor model used in this assay is P388 Leukemia (intraperitoneal) in B6D2F1 (BDF1) mice

[1] = dose: 400.0 mg/kg/injection, schedule: Q01DX009 (ip), vehicle: saline
[2] = dose: 100.0 mg/kg/injection, schedule: Q01DX009 (ip), vehicle: saline with Tween-80

CCn1cnc2c(=S)nc[nH]c21
survivor count (dose: 125.0 mg/kg/injection, schedule: Q01DX010 (ip), vehicle: saline): 6 of 6

CC1(C)N=C(N)N=C(N)N1c1ccc(OCCOc2ccc(NC(=O)CBr)cc2)cc1
T/C (dose: 10.0 mg/kg/injection, schedule: Q01DX009 (ip), vehicle: saline with Tween-80): 125 % of control
T/C (dose: 44.0 mg/kg/injection, schedule: Q01DX009 (ip), vehicle: saline with Tween-80): 140 % of control
T/C (dose: 44.0 mg/kg/injection, schedule: Q04DX003 (ip), vehicle: saline sonified): 135 % of control
T/C (dose: 66.0 mg/kg/injection, schedule: Q01DX009 (ip), vehicle: saline with Tween-80): 145 % of control
T/C (dose: 66.0 mg/kg/injection, schedule: Q04DX003 (ip), vehicle: saline sonified): 135 % of control
survivor count [1]: 5 of 6

CCCCCN(C)/N=N/c1nc[nH]c1C(N)=O
T/C [2]: 125 % of control
survivor count (dose: 400.0 mg/kg/injection, schedule: Q01DX009 (ip), vehicle: saline with Tween-80): 5 of 6
survivor count (dose: 600.0 mg/kg/injection, schedule: Q04DX003 (ip), vehicle: Klucel (hydroxypropylcellulose) (HPC)): 5 of 6

CC(=O)Oc1ccc2c(c1)C(=O)C(Br)C1C2CCC2(C)C(OC(C)=O)CCC12 (stereo not drawn)
survivor count (dose: 100.0 mg/kg/injection, schedule: Q01DX010 (sc), vehicle: steroid suspending solution): 6 of 6
survivor count (dose: 200.0 mg/kg/injection, schedule: Q01DX010 (sc), vehicle: steroid suspending solution): 6 of 6

O=C(CCCCC(=O)Nc1ccc(C2=NCCN2)cc1)Nc1ccc(C2=NCCN2)cc1
T/C (dose: 8.3 mg/kg/injection, schedule: Q01DX009 (ip), vehicle: Klucel (hydroxypropylcellulose) (HPC)): 125 % of control
T/C (dose: 12.0 mg/kg/injection, schedule: Q01DX009 (ip), vehicle: Klucel (hydroxypropylcellulose) (HPC)): 130 % of control
T/C (dose: 19.0 mg/kg/injection, schedule: Q01DX009 (ip), vehicle: Klucel (hydroxypropylcellulose) (HPC)): 127 % of control
T/C (dose: 29.0 mg/kg/injection, schedule: Q01DX009 (ip), vehicle: Klucel (hydroxypropylcellulose) (HPC)): 127 % of control
T/C (dose: 45.0 mg/kg/injection, schedule: Q01DX009 (ip), vehicle: Klucel (hydroxypropylcellulose) (HPC)): 136 % of control
T/C (dose: 132.0 mg/kg/injection, schedule: Q01DX009 (ip), vehicle: Klucel (hydroxypropylcellulose) (HPC)): 136 % of control
T/C (dose: 264.0 mg/kg/injection, schedule: Q04DX003 (ip), vehicle: Klucel (hydroxypropylcellulose) (HPC)): 140 % of control

C[S+](C)CCCNC(=O)c1csc(-c2csc(CCNC(=O)c3ccccc3)n2)n1
survivor count (dose: 64.0 mg/kg/injection, schedule: Q01DX009 (ip), vehicle: saline): 4 of 10

OCC1OCC(O)C(O)C1O (stereo not drawn)
T/C (dose: 100.0 mg/kg/injection, schedule: Q01DX010 (ip), vehicle: saline): 130 % of control
survivor count (dose: 256.0 mg/kg/injection, schedule: Q03HX024 (ip), vehicle: saline): 6 of 6
T/C (dose: 400.0 mg/kg/injection, schedule: Q01DX010 (ip), vehicle: saline): 130 % of control
survivor count (dose: 512.0 mg/kg/injection, schedule: Q04DX003 (ip), vehicle: saline): 6 of 6

CCC(CCC(C)C1CCC2C3CC=C4CC(O)CCC4(C)C3CCC12C)C(C)C (stereo not drawn) (tested in a mixture with another compound)
survivor count (dose: 25.0 mg/kg/injection, schedule: Q#A X020 (ip), vehicle: water): 5 of 6
survivor count (dose: 50.0 mg/kg/injection, schedule: Q#A X020 (ip), vehicle: water): 1 of 6
survivor count (dose: 100.0 mg/kg/injection, schedule: Q#A X020 (ip), vehicle: water): 0 of 6

COc1cc(C=O)c(C=O)cc1OC
survivor count (dose: 200.0 mg/kg/injection, schedule: Q04DX003 (ip), vehicle: saline with Tween-80): 1 of 6
survivor count (dose: 400.0 mg/kg/injection, schedule: Q04DX003 (ip), vehicle: saline with Tween-80): 0 of 6

c1ccc2sc(SNC3CCCCC3)nc2c1
T/C (dose: 100.0 mg/kg/injection, schedule: Q04DX002 (ip), vehicle: saline): 125 % of control

C=CCN(C)/N=N/c1[nH]ncc1C(N)=O
T/C [2]: 125 % of control

COP1(=O)OCC2OC(n3cnc4c(N)ncnc43)C(O)C2O1 (stereo not drawn)
survivor count (dose: 200.0 mg/kg/injection, schedule: Q01DX009 (ip), vehicle: saline): 6 of 6
survivor count [1]: 6 of 6
